The other results are listed elsewhere or left out. Entries with a potency or affinity are not part of this list.
system: Pseudomonas aeruginosa; conditions: Concentration 20 uM; ASSAY_TEST Inhibition of Bacterial Growth; detection method Absorption (OD600); MEDIA CAMHB; plate type 384well; NBS; CORNING #3640; time 18 hr

Row | SMILES | Inhibition
1 | Sc1nccn1-c1ccccc1Cl | -6.55%
2 | c1ccc2cc(OCCOCCOc3ccc4ccccc4c3)ccc2c1 | 22.77%
3 | c1ccc(CSc2nc3c[nH]cnc-3n2)cc1 | 7.8%
4 | O=C1c2ccccc2C(=O)N1c1nc[nH]n1 | 17.58%
5 | COC(=O)C1CC(O)C(O)C(O)C1 (stereo not given) | 21.21%
6 | O=C(Nc1ccccc1)Nc1ccccn1 | 6.85%
7 | c1ccc(Sc2ncnc3ccccc23)cc1 | 16.03%
8 | NC(=O)c1ccc(Cl)c2ccccc12 | 15.72%
9 | CCOc1ccc(NC(=O)C2CCCN(C)C2)cc1 (stereo not given) | -1.96%
10 | CCOC(=O)C(=O)Cc1nc2ccccc2s1 | 14.64%
11 | CCC1=[N+]([O-])[N+]([O-])=C(c2ccccc2)/C1=N/O | -2.3%
12 | Cc1ccc(C2C=CC(C#N)=CN2Cc2ccccc2)cc1 (stereo not given) | 24.62%
13 | Sc1nc2ccccc2c2ccccc12 | -6.52%
14 | FC(F)(F)c1cccc(-c2nc3nc(Cl)c(Cl)nc3[nH]2)c1 | 8.32%
15 | O=C1C2C3C=CC(O3)C2C(=O)N1Nc1ccccc1 (stereo not given) | 4.25%
16 | O=C(Nc1cccc(Cl)c1)Nn1cnnc1 | -3.53%
17 | Cc1c(Cl)cccc1Nc1ncccc1C(=O)OCC(O)CO (stereo not given) [CLONIXERIL] | 14.92%
18 | CC(C)NC(=O)Nc1cccc(Cl)c1 | 13.44%
19 | CC(=O)Oc1c(C)c(OC(C)=O)c2c(c1C(C)=O)OC1CC(=O)C(C(C)=O)=C(O)C21C (stereo not given) | 26.67%
20 | Cc1oc2c(c(C)nn2-c2ccccc2)c(=O)c1Cl | 15.68%
21 | CC(=O)Nc1ccc(Cc2nc3c(=O)n(C)c(=O)n(C)c3[nH]2)cc1 | 9.43%
22 | CCOC(=O)Cc1cc(O)c2cc(C)ccc2n1 | 10.86%
23 | Nc1n[nH]c(CO)n1.O=C(O)CO | 5.84%
24 | c1ccc2[nH]c(CCCCCc3nc4ccccc4[nH]3)nc2c1 | -10.64%
25 | CSc1ccc(NC(=O)Nc2ccccc2C(N)=O)cc1 | 13.42%

Row | SMILES | Inhibition
26 | Clc1ccc2nc3ccccc3cc2c1 | 4.5%
27 | Cc1ccc(S(=O)(=O)N(C)C)cc1[N+](=O)[O-] | -3.98%
28 | C=C1CC2(OC1=O)c1ccccc1CCc1ccccc12 | 0.65%
29 | Nc1ccc2c(c1)nnn2-c1ccccc1 | 19.24%
30 | S=C(Nc1ccccc1)c1ccccn1 | 13.6%
31 | N#Cc1nnn(-c2ccc(Cl)cc2)c1N | 8.41%
32 | O=C(CC1(O)CCCCC1)OC1CCCC1 | -31.15%
33 | NC(=O)CCC(C(=O)O)N1C(=O)C2C3CCC(C3)C2C1=O (stereo not given) | -5.69%
34 | CCOC(=O)c1cc[nH]c1CC(=O)NC | 1.8%
35 | O=c1cc(-c2ccccc2)[nH]c2cc(-c3ccco3)nn12 | 8.25%
36 | CC(C)COc1nc2c(c(=O)n(C)c(=O)n2C)n1C | 8.19%
37 | COc1ccc(N/C=C2\C(=O)CCc3c2oc2cc(Cl)c(O)c(Cl)c32)cc1 | 11.35%
38 | O=C(O)c1ccccc1C(=O)Nc1ccccc1[N+](=O)[O-] | 3.23%
39 | O=C(O)C1OCC2(CO1)COC(C(=O)O)OC2 (stereo not given) | 10.49%
40 | Cc1cc(N2CCN(C)CC2)n2nc(-c3ccc(Cl)cc3)nc2n1 | 14.82%
41 | CCCNC(=O)c1ccc(Cl)cc1Cl | 4.07%
42 | OCCN1CCSC1=S | 19.31%
43 | NC(CC(=O)Nc1cc(C(F)(F)F)ccc1Cl)=NO | 4.66%
44 | Cn1c([N+](=O)[O-])cnc1N1CCN(c2nncs2)C1=O | 3.62%
45 | CN1N=C(N)c2cn(C3OC(COP(=O)(O)O)C(O)C3O)c3ncnc1c23 (stereo not given) | 8.37%
46 | CC1=CC(C)(C)Nc2ccc(Cc3ccc4c(c3)C(C)=CC(C)(C)N4)cc21 | -9.63%
47 | CCN(CC)C(=O)Cn1ccc(NC(C)=O)nc1=O | 6.41%
48 | CN(C)C(=S)/N=c1\ssc(=S)n1Cc1ccco1 | 5.51%
49 | C#C[C@]1(O)CC[C@H]2[C@@H]3CCC4=Cc5oncc5C[C@]4(C)[C@H]3CC[C@@]21C [DANAZOL] | 20.34%
50 | NC(=O)SCC(=O)Nc1ccccc1C(=O)O | 2.58%

Row | SMILES | Inhibition
51 | COc1cc2c(cc1OC)C(=O)Cc1ccc3c(c1CN(C)CC2)OCO3 | 30.96%
52 | CCn1c2ccccc2nc2cc3c(cc21)c(Cl)c(=O)c1ccccc13 | 22.92%
53 | CCOC(=O)c1cnn2c(SC)ncnc12 | 1.79%
54 | CCn1c2ccccc2c2c3ncc4cccn4c3ccc21 | 2.22%
55 | Cc1c(CCO)c(=O)n2n1CCCC2 | -24.3%
56 | CCn1c(=O)n(C)c2c(=O)n(C)c(=O)n(C)c21 | 17.4%
57 | c1coc(CNc2[nH]cnc3nncc2-3)c1 | 11.43%
58 | CCOC(=O)c1c[nH]nc1O | 18.77%
59 | CC(C)C(=O)c1ccc(O)c(O)c1 | -17.05%
60 | CN(CCC#N)c1ccc(/C=C(\C#N)c2cccc(C(F)(F)F)c2)cc1 | 7.3%
61 | CC(C1=C(CCN(C)C)Cc2ccccc21)c1ccccn1.O=C(O)/C=C\C(=O)O (stereo not given) [DIMETHINDENE MALEATE] | 22.05%
62 | Oc1ccccc1-c1nc2c3ccccc3c3ccccc3c2[nH]1 | 22.28%
63 | NC(=N\c1ccc(N)cc1)/C(N)=N/c1ccc(N)cc1 | 16.29%
64 | CCCCn1c(OC(=S)N(CC)CC)cc(C)nc1=S | -2.01%
65 | Cn1cnc([N+](=O)[O-])c1Sc1nc[nH]n1 | 10.16%
66 | Nc1cc(Nc2ccc(Br)cc2)nc(N)n1 | -13.25%
67 | Nc1cc(N)nc(CS)n1 | 19.05%
68 | C=CCNC(S)=NCC | 18.41%
69 | OC1COC(OCc2ccccc2)C(O)C1O (stereo not given) | 5.53%
70 | CCSc1ncc(CO)c(N)n1 | -0.19%
71 | O=C1C(Br)=Cc2cccc3cccc1c23 | 2.26%
72 | CCOC(=O)C(=O)Cc1cccnn1 | 18.91%
73 | CNc1ccc(/N=N/c2cc[n+]([O-])cc2C)cc1C | 11.82%
74 | O=S(=O)(c1ccc2c(c1)CCCN2)N1CCC[C@H]2CCCC[C@@H]21 | 6.71%
75 | C1COCCN1.O=C(O)C(C=C(Cl)Cl)N1CCOCC1 (stereo not given) | 8.65%

Of the compounds above, these have two or more sulfur atoms.
Row | SMILES | Inhibition
42 | OCCN1CCSC1=S | 19.31%
48 | CN(C)C(=S)/N=c1\ssc(=S)n1Cc1ccco1 | 5.51%
64 | CCCCn1c(OC(=S)N(CC)CC)cc(C)nc1=S | -2.01%

Reference: ChEMBL document CHEMBL4296182, “CO-ADD screening of NIH NCI Diversity Set V”
